# Laboratory results: paper doi:10.1101/2024.09.03.611033
# The chains behind the UniProt entries cited, without tags or fusion partners.
# UniProt P11940: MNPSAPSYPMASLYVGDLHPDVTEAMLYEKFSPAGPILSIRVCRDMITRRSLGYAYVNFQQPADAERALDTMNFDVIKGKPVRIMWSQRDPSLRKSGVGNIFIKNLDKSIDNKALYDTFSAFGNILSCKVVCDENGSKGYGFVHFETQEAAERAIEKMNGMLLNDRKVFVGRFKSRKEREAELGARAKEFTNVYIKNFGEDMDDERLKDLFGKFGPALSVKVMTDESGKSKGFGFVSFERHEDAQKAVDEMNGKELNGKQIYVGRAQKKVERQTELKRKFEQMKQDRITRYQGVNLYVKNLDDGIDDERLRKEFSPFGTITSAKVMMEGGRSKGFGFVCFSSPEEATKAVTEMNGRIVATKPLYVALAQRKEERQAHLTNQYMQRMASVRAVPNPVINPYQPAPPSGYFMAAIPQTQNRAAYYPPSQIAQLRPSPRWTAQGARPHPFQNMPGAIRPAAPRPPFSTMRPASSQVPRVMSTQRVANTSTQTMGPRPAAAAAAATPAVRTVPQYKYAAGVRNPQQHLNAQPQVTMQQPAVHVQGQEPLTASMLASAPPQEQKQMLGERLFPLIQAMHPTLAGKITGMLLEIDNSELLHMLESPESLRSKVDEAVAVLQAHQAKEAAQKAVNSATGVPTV
# UniProt Q99471: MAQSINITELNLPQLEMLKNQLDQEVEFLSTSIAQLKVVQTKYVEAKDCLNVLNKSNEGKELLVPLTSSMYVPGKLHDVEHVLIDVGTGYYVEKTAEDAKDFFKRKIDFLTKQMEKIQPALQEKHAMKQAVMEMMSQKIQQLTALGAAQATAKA
# UniProt Q9Y4X5: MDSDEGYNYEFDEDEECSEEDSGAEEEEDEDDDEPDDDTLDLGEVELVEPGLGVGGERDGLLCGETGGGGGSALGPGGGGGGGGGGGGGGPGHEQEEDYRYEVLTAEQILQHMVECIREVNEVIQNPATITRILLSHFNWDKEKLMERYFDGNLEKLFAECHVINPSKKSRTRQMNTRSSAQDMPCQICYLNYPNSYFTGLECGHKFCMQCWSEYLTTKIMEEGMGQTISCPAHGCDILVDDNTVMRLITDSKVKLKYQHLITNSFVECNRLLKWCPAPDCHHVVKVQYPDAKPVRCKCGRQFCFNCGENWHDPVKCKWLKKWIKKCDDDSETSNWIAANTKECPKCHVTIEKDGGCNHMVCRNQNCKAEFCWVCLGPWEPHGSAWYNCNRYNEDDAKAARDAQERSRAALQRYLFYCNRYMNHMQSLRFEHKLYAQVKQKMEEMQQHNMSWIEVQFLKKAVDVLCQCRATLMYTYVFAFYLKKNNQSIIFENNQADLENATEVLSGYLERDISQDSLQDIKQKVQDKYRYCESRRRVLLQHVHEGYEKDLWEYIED
# UniProt Q7Z2W4: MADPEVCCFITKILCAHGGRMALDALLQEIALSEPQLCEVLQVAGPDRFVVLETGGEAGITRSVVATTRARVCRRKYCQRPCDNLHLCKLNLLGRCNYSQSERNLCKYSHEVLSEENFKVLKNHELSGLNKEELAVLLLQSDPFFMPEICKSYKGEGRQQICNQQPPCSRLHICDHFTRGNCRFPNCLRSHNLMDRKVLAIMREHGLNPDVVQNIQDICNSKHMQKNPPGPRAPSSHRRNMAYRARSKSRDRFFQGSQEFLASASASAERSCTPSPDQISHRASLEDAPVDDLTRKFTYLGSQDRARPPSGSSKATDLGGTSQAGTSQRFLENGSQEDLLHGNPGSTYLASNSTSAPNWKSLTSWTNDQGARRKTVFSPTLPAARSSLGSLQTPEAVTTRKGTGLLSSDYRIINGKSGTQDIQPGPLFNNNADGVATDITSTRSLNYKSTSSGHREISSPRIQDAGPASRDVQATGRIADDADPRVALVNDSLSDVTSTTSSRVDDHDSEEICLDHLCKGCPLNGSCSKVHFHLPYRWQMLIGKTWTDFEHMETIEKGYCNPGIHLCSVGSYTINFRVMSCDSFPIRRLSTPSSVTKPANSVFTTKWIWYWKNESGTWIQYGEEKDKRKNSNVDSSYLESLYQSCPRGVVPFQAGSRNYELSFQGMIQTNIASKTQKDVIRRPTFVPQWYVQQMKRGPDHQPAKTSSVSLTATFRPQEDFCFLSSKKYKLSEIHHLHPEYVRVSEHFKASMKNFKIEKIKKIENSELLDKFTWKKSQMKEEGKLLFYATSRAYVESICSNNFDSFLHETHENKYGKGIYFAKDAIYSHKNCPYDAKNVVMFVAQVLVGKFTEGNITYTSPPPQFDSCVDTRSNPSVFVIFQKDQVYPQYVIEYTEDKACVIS
# UniProt Q9UNE7: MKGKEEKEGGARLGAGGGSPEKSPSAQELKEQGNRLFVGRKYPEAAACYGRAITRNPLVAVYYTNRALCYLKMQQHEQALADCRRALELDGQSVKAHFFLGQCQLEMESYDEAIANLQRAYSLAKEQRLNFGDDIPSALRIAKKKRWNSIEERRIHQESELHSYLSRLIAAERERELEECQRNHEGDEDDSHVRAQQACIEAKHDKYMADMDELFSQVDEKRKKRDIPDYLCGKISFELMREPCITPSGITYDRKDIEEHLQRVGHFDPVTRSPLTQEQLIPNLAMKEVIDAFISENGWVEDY
# UniProt P08670: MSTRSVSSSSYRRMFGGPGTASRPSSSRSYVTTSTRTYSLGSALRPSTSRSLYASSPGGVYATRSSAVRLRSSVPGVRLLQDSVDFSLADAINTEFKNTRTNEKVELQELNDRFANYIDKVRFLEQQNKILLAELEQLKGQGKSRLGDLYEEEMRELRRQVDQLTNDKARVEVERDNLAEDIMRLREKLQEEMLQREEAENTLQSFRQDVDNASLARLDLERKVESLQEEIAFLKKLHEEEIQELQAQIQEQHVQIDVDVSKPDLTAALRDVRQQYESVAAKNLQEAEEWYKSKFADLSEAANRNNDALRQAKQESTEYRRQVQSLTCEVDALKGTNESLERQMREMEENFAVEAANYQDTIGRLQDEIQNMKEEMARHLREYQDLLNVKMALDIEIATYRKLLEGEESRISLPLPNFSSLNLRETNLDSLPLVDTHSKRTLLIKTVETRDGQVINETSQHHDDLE
# UniProt P20700: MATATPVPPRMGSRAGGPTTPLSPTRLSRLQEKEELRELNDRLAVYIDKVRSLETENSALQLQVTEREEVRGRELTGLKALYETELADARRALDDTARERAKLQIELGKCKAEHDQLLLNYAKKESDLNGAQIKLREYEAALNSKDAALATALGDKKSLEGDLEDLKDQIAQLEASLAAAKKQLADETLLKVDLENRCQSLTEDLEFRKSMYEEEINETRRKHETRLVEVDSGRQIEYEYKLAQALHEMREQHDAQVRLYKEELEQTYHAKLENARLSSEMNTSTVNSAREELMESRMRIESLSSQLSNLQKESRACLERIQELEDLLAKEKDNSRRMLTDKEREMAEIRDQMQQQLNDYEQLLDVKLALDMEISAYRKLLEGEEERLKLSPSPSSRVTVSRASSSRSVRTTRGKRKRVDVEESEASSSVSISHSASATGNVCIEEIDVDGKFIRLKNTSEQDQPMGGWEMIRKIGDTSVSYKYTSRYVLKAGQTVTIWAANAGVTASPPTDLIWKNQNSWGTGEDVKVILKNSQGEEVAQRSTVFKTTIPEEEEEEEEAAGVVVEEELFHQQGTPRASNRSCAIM
# UniProt Q13148: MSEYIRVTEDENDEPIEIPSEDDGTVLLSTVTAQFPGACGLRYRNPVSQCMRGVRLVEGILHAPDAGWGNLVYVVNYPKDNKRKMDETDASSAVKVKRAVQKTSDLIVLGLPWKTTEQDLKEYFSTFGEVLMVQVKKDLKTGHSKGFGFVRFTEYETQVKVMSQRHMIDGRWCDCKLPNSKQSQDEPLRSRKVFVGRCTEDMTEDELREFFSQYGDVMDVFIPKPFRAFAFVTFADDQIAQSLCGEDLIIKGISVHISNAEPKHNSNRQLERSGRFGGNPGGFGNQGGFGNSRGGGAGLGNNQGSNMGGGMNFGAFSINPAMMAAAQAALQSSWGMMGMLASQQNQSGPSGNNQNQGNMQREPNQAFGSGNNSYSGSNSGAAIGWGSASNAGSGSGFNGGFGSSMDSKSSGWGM
# T1: GFP-tagged human gigaxonin (human) (UniProt Q9H2C0)
# T1 sequence: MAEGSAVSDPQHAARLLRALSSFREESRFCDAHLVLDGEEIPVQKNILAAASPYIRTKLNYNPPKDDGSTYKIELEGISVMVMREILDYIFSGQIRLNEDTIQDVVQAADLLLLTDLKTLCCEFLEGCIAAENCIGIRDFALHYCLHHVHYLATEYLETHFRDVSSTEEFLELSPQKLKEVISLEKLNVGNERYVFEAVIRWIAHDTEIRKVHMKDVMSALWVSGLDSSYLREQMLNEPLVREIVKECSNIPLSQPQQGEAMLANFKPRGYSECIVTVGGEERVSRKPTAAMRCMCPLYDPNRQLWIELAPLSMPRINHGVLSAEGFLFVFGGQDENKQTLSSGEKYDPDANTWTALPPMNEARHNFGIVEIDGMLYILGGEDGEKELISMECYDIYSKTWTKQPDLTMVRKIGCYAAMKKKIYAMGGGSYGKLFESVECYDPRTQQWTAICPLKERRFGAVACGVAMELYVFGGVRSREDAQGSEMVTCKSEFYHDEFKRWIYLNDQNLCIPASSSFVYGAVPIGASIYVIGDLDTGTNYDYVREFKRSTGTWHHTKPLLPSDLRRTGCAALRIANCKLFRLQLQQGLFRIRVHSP
# B1: TRIM38 (protein, UniProt O00635 1-465)
# chain: MASTTSTKKMMEEATCSICLSLMTNPVSINCGHSYCHLCITDFFKNPSQKQLRQETFCCPQCRAPFHMDSLRPNKQLGSLIEALKETDQEMSCEEHGEQFHLFCEDEGQLICWRCERAPQHKGHTTALVEDVCQGYKEKLQKAVTKLKQLEDRCTEQKLSTAMRITKWKEKVQIQRQKIRSDFKNLQCFLHEEEKSYLWRLEKEEQQTLSRLRDYEAGLGLKSNELKSHILELEEKCQGSAQKLLQNVNDTLSRSWAVKLETSEAVSLELHTMCNVSKLYFDVKKMLRSHQVSVTLDPDTAHHELILSEDRRQVTRGYTQENQDTSSRRFTAFPCVLGCEGFTSGRRYFEVDVGEGTGWDLGVCMENVQRGTGMKQEPQSGFWTLRLCKKKGYVALTSPPTSLHLHEQPLLVGIFLDYEAGVVSFYNGNTGCHIFTFPKASFSDTLRPYFQVYQYSPLFLPPPGD
# B2: keratin 18 (protein, UniProt P05783 1-430)
# chain: MSFTTRSTFSTNYRSLGSVQAPSYGARPVSSAASVYAGAGGSGSRISVSRSTSFRGGMGSGGLATGIAGGLAGMGGIQNEKETMQSLNDRLASYLDRVRSLETENRRLESKIREHLEKKGPQVRDWSHYFKIIEDLRAQIFANTVDNARIVLQIDNARLAADDFRVKYETELAMRQSVENDIHGLRKVIDDTNITRLQLETEIEALKEELLFMKKNHEEEVKGLQAQIASSGLTVEVDAPKSQDLAKIMADIRAQYDELARKNREELDKYWSQQIEESTTVVTTQSAEVGAAETTLTELRRTVQSLEIDLDSMRNLKASLENSLREVEARYALQMEQLNGILLHLESELAQTRAEGQRQAQEYEALLNIKVKLEAEIATYRRLLEDGEDFNLGDALDSSNSMQTIQKTTTRRIVDGKVVSETNDTKVLRH
# B3: lamin B2 (protein, UniProt Q03252 1-620)
# chain: MSPPSPGRRREQRRPRAAATMATPLPGRAGGPATPLSPTRLSRLQEKEELRELNDRLAHYIDRVRALELENDRLLLKISEKEEVTTREVSGIKALYESELADARRVLDETARERARLQIEIGKLRAELDEVNKSAKKREGELTVAQGRVKDLESLFHRSEVELAAALSDKRGLESDVAELRAQLAKAEDGHAVAKKQLEKETLMRVDLENRCQSLQEELDFRKSVFEEEVRETRRRHERRLVEVDSSRQQEYDFKMAQALEELRSQHDEQVRLYKLELEQTYQAKLDSAKLSSDQNDKAASAAREELKEARMRLESLSYQLSGLQKQASAAEDRIRELEEAMAGERDKFRKMLDAKEQEMTEMRDVMQQQLAEYQELLDVKLALDMEINAYRKLLEGEEERLKLSPSPSSRVTVSRATSSSSGSLSATGRLGRSKRKRLEVEEPLGSGPSVLGTGTGGSGGFHLAQQASASGSVSIEEIDLEGKFVQLKNNSDKDQSLGNWRIKRQVLEGEEIAYKFTPKYILRAGQMVTVWAAGAGVAHSPPSTLVWKGQSSWGTGESFRTVLVNADGEEVAMRTVKKSSVMRENENGEEEEEEAEFGEEDLFHQQGDPRTTSRGCYVM
# B4: NUDCD3 (protein, UniProt Q8IVD9 1-361)
# chain: METGAAELYDQALLGILQHVGNVQDFLRVLFGFLYRKTDFYRLLRHPSDRMGFPPGAAQALVLQVFKTFDHMARQDDEKRRQELEEKIRRKEEEEAKTVSAAAAEKEPVPVPVQEIEIDSTTELDGHQEVEKVQPPGPVKEMAHGSQEAEAPGAVAGAAEVPREPPILPRIQEQFQKNPDSYNGAVRENYTWSQDYTDLEVRVPVPKHVVKGKQVSVALSSSSIRVAMLEENGERVLMEGKLTHKINTESSLWSLEPGKCVLVNLSKVGEYWWNAILEGEEPIDIDKINKERSMATVDEEEQAVLDRLTFDYHQKLQGKPQSHELKVHEMLKKGWDAEGSPFRGQRFDPAMFNISPGAVQF
# B5: KHSRP (protein, UniProt Q92945 1-711)
# chain: MSDYSTGGPPPGPPPPAGGGGGAGGAGGGPPPGPPGAGDRGGGGPGGGGPGGGSAGGPSQPPGGGGPGIRKDAFADAVQRARQIAAKIGGDAATTVNNSTPDFGFGGQKRQLEDGDQPESKKLASQGDSISSQLGPIHPPPRTSMTEEYRVPDGMVGLIIGRGGEQINKIQQDSGCKVQISPDSGGLPERSVSLTGAPESVQKAKMMLDDIVSRGRGGPPGQFHDNANGGQNGTVQEIMIPAGKAGLVIGKGGETIKQLQERAGVKMILIQDGSQNTNVDKPLRIIGDPYKVQQACEMVMDILRERDQGGFGDRNEYGSRIGGGIDVPVPRHSVGVVIGRSGEMIKKIQNDAGVRIQFKQDDGTGPEKIAHIMGPPDRCEHAARIINDLLQSLRSGPPGPPGGPGMPPGGRGRGRGQGNWGPPGGEMTFSIPTHKCGLVIGRGGENVKAINQQTGAFVEISRQLPPNGDPNFKLFIIRGSPQQIDHAKQLIEEKIEGPLCPVGPGPGGPGPAGPMGPFNPGPFNQGPPGAPPHAGGPPPHQYPPQGWGNTYPQWQPPAPHDPSKAAAAAADPNAAWAAYYSHYYQQPPGPVPGPAPAPAAPPAQGEPPQPPPTGQSDYTKAWEEYYKKIGQQPQQPGAPPQQDYTKAWEEYYKKQAQVATGGGPGAPPGSQPDYSAAWAEYYRQQAAYYGQTPGPGGPQPPPTQQGQQQAQ
# Biological target: T1, GFP-tagged human gigaxonin (human)
# Assay: affinity purification with mass spectrometry; GFP-Gig from TritonX-100-soluble HEK293 lysate captured on TurboGFP-Trap magnetic agarose beads overnight at 4°C; on-bead tryptic digestion, LC-MS/MS; compared with untransfected and GFP vector-transfected cells
row,binding,Molecule
1,binds,PABPC1 (from UniProt P11940 1-636)
2,binds,PFDN5 (from UniProt Q99471 1-154)
3,binds,HUWE1 (from UniProt Q7Z6Z7 1-4374)
4,binds,ARIH1 (from UniProt Q9Y4X5 1-557)
5,binds,ZC3HAV1 (from UniProt Q7Z2W4 1-902)
6,binds,STUB1 (from UniProt Q9UNE7 1-303)
7,binds,vimentin (from UniProt P08670 1-466)
8,binds,lamin B1 (from UniProt P20700 1-586)
9,binds,TAR DNA-binding protein 43 (from UniProt Q13148 1-414)
10,binds,B1
11,binds,B2
12,binds,B3
13,binds,B4
14,binds,B5

# No constants are given. Whether binding was seen depends on the method and setting. Binding seen in cells or lysates may run through a third protein. A yes stands for co-enrichment or nearness to the bait. Other partners may have been found. Tags and fused reporters may be left off the sequences shown.
